Test results as given in patent US20210246195A1.
These are yes or no findings as the source states them, for the method shown. A result given as binding can be weak or reduced; the word gives no strength.

Experiments:
[1] = target: Ara h 3 (purified natural peanut allergen) (Arachis hypogaea); assay: BLI, scatter plot of KDs
[2] = target: Ara h 3 (purified natural peanut allergen) (Arachis hypogaea); assay: biolayer interferometry (FIG. 4C)
[3] = target: Ara h 3 (purified natural peanut allergen) (Arachis hypogaea); assay: not named there (biolayer interferometry in Example 1)
[4] = target: Ara h 3 (purified natural peanut allergen) (Arachis hypogaea); assay: biolayer interferometry

binding [1]	Binder	further results
binds	PA13P1H08 variant rCDR1-N (antibody, human IgG1, V domains shown) VH: QVQLVNSGGGVVQPGRSLRLSCVASGFTFSSYGIHWVRQAPGKGLEWVAVISNDGEKSESADSVKGRFTPSRDNSKNTVYLQMNNLRVEDTAVYYCAKVLDYSRYSYYYGMDVWGQGTTVIVSS VL: EIVLTQSPGTLSLSPGGRGTLSCRTSQTINNAHLAWYQHKPGQAPRLLIYGSSERATGVPDRFSGSGSGSDFTLTISSLEAEDFAVYYCQHYGRSPPYTFGPGTKLDIK	–
binds	PA13P1H08 variant rCDR2-N (antibody, human IgG1, V domains shown) VH: QVQLVNSGGGVVQPGRSLRLSCVASGFTFSTFGIHWVRQAPGKGLEWVAVISYDGSNKESADSVKGRFTPSRDNSKNTVYLQMNNLRVEDTAVYYCAKVLDYSRYSYYYGMDVWGQGTTVIVSS VL: EIVLTQSPGTLSLSPGGRGTLSCRTSQTINNAHLAWYQHKPGQAPRLLIYGSSERATGVPDRFSGSGSGSDFTLTISSLEAEDFAVYYCQHYGRSPPYTFGPGTKLDIK	binding [2]: binds; binding [3]: binds
binds	PA13P1H08 variant rFWRs-N (antibody, human IgG1, V domains shown) VH: QVQLVESGGGVVQPGRSLRLSCAASGFTFSTFGMHWVRQAPGKGLEWVAVISNDGEKSYYADSVKGRFTISRDNSKNTLYLQMNSLRAEDTAVYYCAKVLDYSRYSYYYGMDVWGQGTTVTVSS VL: EIVLTQSPGTLSLSPGGRGTLSCRTSQTINNAHLAWYQHKPGQAPRLLIYGSSERATGVPDRFSGSGSGSDFTLTISSLEAEDFAVYYCQHYGRSPPYTFGPGTKLDIK	–
–	PA15P1D05 (antibody, human IgG1, V domains shown) VH: QVHLVESGGGVVQPGRSLGLSCVASGFTFNYYAIHWVRQAPGKGLEWVAVVSFDGNIIYYADSVKGRFNISRDNSKNTVNLQMNSLRPDDTAVYYCVRDGEYCSGGNCYWGDFDHWGQGSLVTVSP VL: EIVLTQSPATLSLSPGERATLSCRASQSISSEYLTWFQQKPGQAPRLLIYGAFNRATGIPDRFSGSGSGTDFTLTISSLEPEDFAVYYCQQYANWWTFGQGTKVEIK	binding [4]: binds
–	PA15P1D12 (antibody, human IgG1, V domains shown) VH: QVHLVESGGGVVQPGRSLGLSCAASGFTFNYYAIHWVRQAPGKGLEWVAVVSFDGNIIYYADSVKGRFNISRDNSKNTVNLQMNSLRADDTAVYYCVRDGEYCSGGNCYWGDFDYWGQGTLVTVSP VL: EIVLTQSPGTLSLSPGERATLSCRASQSISSEYLTWFQQKPGQAPRLLIYGAFNRATGIPDRFSGSGSGTDFTLTISSLEPEDFAVYYCQQYANWWTFGQGTKVEIK	binding [4]: binds
binds	PA12P3D08 (antibody, human IgG1, V domains shown) VH: QVQLVESGGGVVQPGKSLRLSCAASAFTFRRFAMHWVRQAPGKGLEWVAVISDNGLREDYEDSVKGRFTISRDNSQNTLYLQMNGLRAEDTAVYYCAKVLDYNEYSLYFGMDVWGQGTTVTVSS VL: EVVLTQSPATLSLSPGERATLSCRTSQAISNNFLAWYQQRPGQPPRLLIYASSRRATDTPDRFTGSGSGTDFTLTITRLEPEDFAVYFCQYYSDSPPYTFGPGTKLEIK	–
binds	PA12P1C07 (antibody, human IgG1, V domains shown) VH: QVQLEESGGGVVQPGKSLRLSCVASAFTFKRFAMHWVRQAPGKGLEWVAVISDNGLREDYEDSVKGRFTISRDNSKDTLYLQMNSLRPEDTAIYYCAKVLDYSEYSLYFGMDVWGQGTTVLVSS VL: EIVLTQSPAILSLSPGDRATLSCRTSQTVNSNFLAWYQQKPGQAPRLLIYGASRRAIDIPDRFTGSGSGTEFTLTIARLEPEDFAVYSCQHYSDSPPYTFGQGTKLEIK	–
